{"source": "PubChem BioAssay AID652243 (Drosophila RNAi Screening Center, 2013)", "test": "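Fly regulators of androgen-dependent reporter output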 (primary screen)", "cells": "Drosophila S2R+ cells", "reagent": "long dsRNA against Drosophila genes", "timing": "72 h (48 h, then 24 h hormone)", "challenge": "synthetic androgen R1881 at 10 nM for 24 h", "measurement": "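Firefly light from an androgen-responsive reporter and Renilla control light per well, raw and unnormalised, for each of two replicates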", "direction": "firefly reporter light: higher = more light from androgen-responsive reporter; Renilla control light: higher = more constitutive control signal (cell number, transfection)", "hit rule": "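Across duplicate plates, a knock-down whose log firefly/Renilla ratio shifted a set fold down or up from the GFP/LacZ control mean was a hit; the downward cut appears as both 1.5 and 3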", "meaning of the calls": "active = hit: reporter lowered or raised; inactive = no hit", "note": "In all, the deposit lists about 24,000 reagents; below is an unselected part of those that have a named target and a result. Over the whole deposit, 246 (1%) are marked active. 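Plates not normalised; calls are printed but the firefly/Renilla ratio behind them is not deposited; fold cut for lowering reported inconsistently.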 Raw values are not corrected between plates. Reagent sequences are not shown. Not stated in the record: the amount of reagent."}
{"Gene":"Zw","DRSC id":"DRSC20303","firefly reporter light, replicate 1":81956,"firefly reporter light, replicate 2":88514,"Renilla control light, replicate 1":3.91e5,"Renilla control light, replicate 2":4.60e5,"activity call":"inactive"}
{"Gene":"Zw","DRSC id":"DRSC27667","firefly reporter light, replicate 1":4.81e5,"firefly reporter light, replicate 2":2.71e5,"Renilla control light, replicate 1":5.46e5,"Renilla control light, replicate 2":5.37e5,"activity call":"inactive"}
{"Gene":"CG4914","DRSC id":"DRSC10458","firefly reporter light, replicate 1":1.40e5,"firefly reporter light, replicate 2":1.41e5,"Renilla control light, replicate 1":2.06e6,"Renilla control light, replicate 2":1.69e6,"activity call":"inactive"}
{"Gene":"Osi18","DRSC id":"DRSC12181","firefly reporter light, replicate 1":29313,"firefly reporter light, replicate 2":42118,"Renilla control light, replicate 1":1.09e6,"Renilla control light, replicate 2":9.31e5,"activity call":"inactive"}
{"Gene":"CG31661","DRSC id":"DRSC00296","firefly reporter light, replicate 1":1.21e5,"firefly reporter light, replicate 2":84781,"Renilla control light, replicate 1":6.28e5,"Renilla control light, replicate 2":6.54e5,"activity call":"inactive"}
{"Gene":"CG31661","DRSC id":"DRSC28732","firefly reporter light, replicate 1":4.59e5,"firefly reporter light, replicate 2":5.57e5,"Renilla control light, replicate 1":1.02e6,"Renilla control light, replicate 2":1.53e6,"activity call":"inactive"}
{"Gene":"CG33090","DRSC id":"DRSC01908","firefly reporter light, replicate 1":9.78e5,"firefly reporter light, replicate 2":8.56e5,"Renilla control light, replicate 1":1.19e6,"Renilla control light, replicate 2":1.40e6,"activity call":"inactive"}
{"Gene":"CG33090","DRSC id":"DRSC27923","firefly reporter light, replicate 1":6.84e5,"firefly reporter light, replicate 2":6.83e5,"Renilla control light, replicate 1":1.69e6,"Renilla control light, replicate 2":1.38e6,"activity call":"inactive"}
{"Gene":"Ndc1","DRSC id":"DRSC15895","firefly reporter light, replicate 1":93843,"firefly reporter light, replicate 2":69690,"Renilla control light, replicate 1":6.82e5,"Renilla control light, replicate 2":9.56e5,"activity call":"inactive"}
{"Gene":"CG12520","DRSC id":"DRSC09892","firefly reporter light, replicate 1":1.22e5,"firefly reporter light, replicate 2":1.01e5,"Renilla control light, replicate 1":1.24e6,"Renilla control light, replicate 2":1.46e6,"activity call":"inactive"}
{"Gene":"CG10907","DRSC id":"DRSC09804","firefly reporter light, replicate 1":1.85e5,"firefly reporter light, replicate 2":1.93e5,"Renilla control light, replicate 1":1.91e6,"Renilla control light, replicate 2":1.53e6,"activity call":"inactive"}
{"Gene":"CG31337","DRSC id":"DRSC12981","firefly reporter light, replicate 1":2.42e5,"firefly reporter light, replicate 2":1.96e5,"Renilla control light, replicate 1":3.14e5,"Renilla control light, replicate 2":4.79e5,"activity call":"inactive"}
{"Gene":"CG30279 (retired record)","DRSC id":"DRSC22417","firefly reporter light, replicate 1":4.00e5,"firefly reporter light, replicate 2":6.89e5,"Renilla control light, replicate 1":1.36e6,"Renilla control light, replicate 2":2.21e6,"activity call":"inactive"}
{"Gene":"CG30279 (retired record)","DRSC id":"DRSC27722","firefly reporter light, replicate 1":2.42e5,"firefly reporter light, replicate 2":2.42e5,"Renilla control light, replicate 1":3.50e5,"Renilla control light, replicate 2":6.06e5,"activity call":"inactive"}
{"Gene":"Nepl9","DRSC id":"DRSC02255","firefly reporter light, replicate 1":1.15e5,"firefly reporter light, replicate 2":1.53e5,"Renilla control light, replicate 1":1.72e6,"Renilla control light, replicate 2":1.78e6,"activity call":"inactive"}
{"Gene":"Lsm11","DRSC id":"DRSC06238","firefly reporter light, replicate 1":2.54e5,"firefly reporter light, replicate 2":2.01e5,"Renilla control light, replicate 1":1.61e6,"Renilla control light, replicate 2":1.44e6,"activity call":"inactive"}
{"Gene":"CG13492","DRSC id":"DRSC04137","firefly reporter light, replicate 1":1.82e5,"firefly reporter light, replicate 2":2.23e5,"Renilla control light, replicate 1":1.89e6,"Renilla control light, replicate 2":1.19e6,"activity call":"inactive"}
{"Gene":"bwa","DRSC id":"DRSC01749","firefly reporter light, replicate 1":1.15e5,"firefly reporter light, replicate 2":1.85e5,"Renilla control light, replicate 1":3.06e5,"Renilla control light, replicate 2":5.36e5,"activity call":"inactive"}
{"Gene":"bwa","DRSC id":"DRSC02310","firefly reporter light, replicate 1":1.89e5,"firefly reporter light, replicate 2":2.06e5,"Renilla control light, replicate 1":1.68e6,"Renilla control light, replicate 2":1.69e6,"activity call":"inactive"}
{"Gene":"CG15347","DRSC id":"DRSC18031","firefly reporter light, replicate 1":3.15e5,"firefly reporter light, replicate 2":3.77e5,"Renilla control light, replicate 1":3.13e6,"Renilla control light, replicate 2":3.71e6,"activity call":"inactive"}
{"Gene":"Su(var)2-10","DRSC id":"DRSC07721","firefly reporter light, replicate 1":2.15e6,"firefly reporter light, replicate 2":1.50e6,"Renilla control light, replicate 1":2.48e6,"Renilla control light, replicate 2":1.27e6,"activity call":"inactive"}
{"Gene":"Su(var)2-10","DRSC id":"DRSC28335","firefly reporter light, replicate 1":7.86e5,"firefly reporter light, replicate 2":7.85e5,"Renilla control light, replicate 1":9.27e5,"Renilla control light, replicate 2":1.27e6,"activity call":"inactive"}
{"Gene":"Letm1","DRSC id":"DRSC04476","firefly reporter light, replicate 1":6.48e5,"firefly reporter light, replicate 2":6.38e5,"Renilla control light, replicate 1":1.40e6,"Renilla control light, replicate 2":1.61e6,"activity call":"inactive"}
{"Gene":"Cftr","DRSC id":"DRSC15872","firefly reporter light, replicate 1":73174,"firefly reporter light, replicate 2":1.03e5,"Renilla control light, replicate 1":5.27e5,"Renilla control light, replicate 2":6.61e5,"activity call":"inactive"}
{"Gene":"Cftr","DRSC id":"DRSC24655","firefly reporter light, replicate 1":6.88e5,"firefly reporter light, replicate 2":8.13e5,"Renilla control light, replicate 1":7.39e5,"Renilla control light, replicate 2":9.08e5,"activity call":"inactive"}
{"Gene":"CG14177 (retired record)","DRSC id":"DRSC10176","firefly reporter light, replicate 1":3.67e5,"firefly reporter light, replicate 2":6.62e5,"Renilla control light, replicate 1":1.33e6,"Renilla control light, replicate 2":1.95e6,"activity call":"inactive"}
{"Gene":"CG14177 (retired record)","DRSC id":"DRSC27883","firefly reporter light, replicate 1":8.62e5,"firefly reporter light, replicate 2":5.44e5,"Renilla control light, replicate 1":2.36e6,"Renilla control light, replicate 2":1.71e6,"activity call":"inactive"}

Copied from the entries so far for reference:
{"Gene":"Zw","DRSC id":"DRSC20303","firefly reporter light, replicate 1":81956,"firefly reporter light, replicate 2":88514,"Renilla control light, replicate 1":3.91e5,"Renilla control light, replicate 2":4.60e5,"activity call":"inactive"}
{"Gene":"Zw","DRSC id":"DRSC27667","firefly reporter light, replicate 1":4.81e5,"firefly reporter light, replicate 2":2.71e5,"Renilla control light, replicate 1":5.46e5,"Renilla control light, replicate 2":5.37e5,"activity call":"inactive"}
{"Gene":"CG4914","DRSC id":"DRSC10458","firefly reporter light, replicate 1":1.40e5,"firefly reporter light, replicate 2":1.41e5,"Renilla control light, replicate 1":2.06e6,"Renilla control light, replicate 2":1.69e6,"activity call":"inactive"}
